PubChem BioAssay AID1053208 – Peter MacCallum Cancer Centre, 2014
Here is an unselected part of about 17,000 deposited reagents. Over the whole deposit, 788 (4.7%) are marked active. 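Calls rest on z-score classes alone; an extra cut-off of viability at most 70% of control was not applied to them.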

Assay: 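Find knock-downs that sensitise mouse osteosarcoma cells to doxorubicin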 (primary screen)
Cells: mouse osteosarcoma cells, early-passage culture from an engineered mouse model of fibroblastic bone tumour
Knock-down reagent: siRNA pool against mouse genes, 40 nM
Timing: about 120 h (48 h before drug, then 72 h with drug)
Conditions: doxorubicin 100 nM for 72 h, roughly 30-40% inhibitory dose
Detection: 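Viability read as ATP luminescence after 72 h of 100 nM doxorubicin or none, duplicate wells averaged, scaled to non-targeting siRNA, then expressed as robust z-scores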
Scale: viability z-score with doxorubicin and doxorubicin viability vs non-targeting: higher = more viable cells under doxorubicin; viability z-score without drug: higher = more viable cells with knock-down alone; z-score of drug to no-drug ratio: higher = less drug sensitisation by knock-down
Active means: 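Called active if knock-down leaves viability unchanged without drug (z within -2 to 2) but lowers it with doxorubicin (z at or under -2)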

The first 2 entries, to show the layout:
gene | combined z-score class | viability z-score with doxorubicin | viability z-score without drug | z-score of drug to no-drug ratio | doxorubicin viability vs non-targeting | Call
Hbegf | no change with or without drug | -1.01 | 0.17 | -1.01 | 0.85 | inactive
Hilpda | high cell count without drug only | 0.67 | 3.04 | -1.12 | 1 | inactive

The list itself, from the start:
gene | combined z-score class | viability z-score with doxorubicin | viability z-score without drug | z-score of drug to no-drug ratio | doxorubicin viability vs non-targeting | Call
Hbegf | no change with or without drug | -1.01 | 0.17 | -1.01 | 0.85 | inactive
Hilpda | high cell count without drug only | 0.67 | 3.04 | -1.12 | 1 | inactive
Qrfprl | no change with or without drug | 0 | 0.34 | -0.11 | 0.94 | inactive
Cmtm7 | no change with or without drug | 0.67 | 0.51 | 0.45 | 1 | inactive
Nr1i3 | no change with or without drug | 1.8 | 0.84 | 1.35 | 1.1 | inactive
Sf3a3 | no change with or without drug | -1.12 | -0.51 | -0.79 | 0.84 | inactive
Cldn10 | no change with or without drug | 0.9 | 0.17 | 0.9 | 1.02 | inactive
Kpna2 | no change with or without drug | -0.9 | -1.01 | -0.11 | 0.86 | inactive
Clpx | no change with or without drug | -0.56 | -0.84 | 0.11 | 0.89 | inactive
Coch | no change with or without drug | -0.34 | -0.17 | -0.11 | 0.91 | inactive
Bend3 | no change with or without drug | -0.45 | -0.34 | -0.11 | 0.9 | inactive
Klk1b24 | no change with or without drug | 1.46 | 0.84 | 1.01 | 1.07 | inactive
Lrrc8a | low cell count with and without drug | -3.37 | -2.53 | -2.02 | 0.64 | inactive
Bcl2a1d | high cell count without drug only | 0.9 | 2.19 | -0.45 | 1.02 | inactive
Nmbr | no change with or without drug | 0.79 | 1.69 | -0.22 | 1.01 | inactive
Egln2 | no change with or without drug | -1.01 | 0.34 | -1.12 | 0.85 | inactive
Shb | no change with or without drug | -0.67 | -1.52 | 0.45 | 0.88 | inactive
Tuft1 | no change with or without drug | 0.22 | -1.85 | 1.8 | 0.96 | inactive
Lime1 | no change with or without drug | 0 | -0.17 | 0.22 | 0.94 | inactive
Gusb | no change with or without drug | 1.57 | 0.51 | 1.35 | 1.08 | inactive
